Reference: the supplement of paper PMC12889115
This is one part of the list. These are raw signals, not scaled to a control.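 In the initial screen, polymyxin B was used at a concentration that permeabilizes Salmonella's outer membrane but not its inner membrane. Maximum growth was set by DMSO wells with or without polymyxin B. Since plates varied, data were ranked per plate, and compounds giving the lowest OD600 advanced as hits.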

System: Salmonella enterica serovar Typhimurium SL1344
Assay: bacterial growth OD600 after 18 h with compound and polymyxin B; higher = more bacterial growth (less inhibition)
Settings: 50 µM, Mueller-Hinton broth

With `COc1ccc(-c2nn(-c3ccccc3)cc2CN2CCOCC2)c(F)c1` as the compound, how does the “bacterial growth OD600” value (polymyxin B 1 µg/mL) read?
The value was 0.745.

For `CCn1ncc(CN2CCCC2C(=O)Nc2ccc(-c3cscn3)cc2)c1C` (stereo not given), which “bacterial growth OD600” value (polymyxin B 0.75 µg/mL) is on record?
The value was 0.856.

With `CC(=O)c1cccc(OCc2cc(C(=O)N(C)Cc3cc(C)[nH]n3)n[nH]2)c1` as the compound, how does the “bacterial growth OD600” value (polymyxin B 1 µg/mL) read?
Its value is 0.998.

`CN(CCCN1CCOCC1)C(=O)CC1(c2cccc(F)c2)CC(=O)N(Cc2cccnc2)C1=O` (stereo not given) was tested. Which “bacterial growth OD600” value (polymyxin B 0.75 µg/mL) did it give?
The value was 0.79.

Which “bacterial growth OD600” value (polymyxin B 0.75 µg/mL) does the source give for `CCOc1cc(CN2CCC(C3(Cc4cccc(OC)c4)NC(=O)N(C)C3=O)CC2)ccc1O` (stereo not given) here?
Its value is 0.798.

`C#Cc1ccc(CNC(C)c2cnc(-c3ccncc3)nc2C)cc1` (stereo not given) was tested. Which “bacterial growth OD600” value (polymyxin B 0.75 µg/mL) did it give?
Its value is 0.8.

For `COc1ccc(CCCN2C(=O)O[C@@H]3CN(S(=O)(=O)N(C)C)C[C@@H]32)cc1`, which “bacterial growth OD600” value (polymyxin B 1 µg/mL) is on record?
The value was 0.914.

`COc1ccc(C(=O)NC2CC2)c(OC2CCN(Cc3cccs3)CC2)c1` was tested. Which “bacterial growth OD600” value (polymyxin B 0.75 µg/mL) did it give?
The value was 0.832.

How did the “bacterial growth OD600” value (polymyxin B 0.75 µg/mL) turn out when `CN(C)C(=O)C1CCCN(C2CCN(Cc3ccccc3)CC2)C1` (stereo not given) was run?
The value was 0.882.

`COc1ccc(CN2CCCC(CCC(=O)NCc3ccc(OC)cc3OC)C2)c(O)c1` (stereo not given) was tested. Which “bacterial growth OD600” value (polymyxin B 0.75 µg/mL) did it give?
The value was 0.72.

How did the “bacterial growth OD600” value (polymyxin B 0.75 µg/mL) turn out when `O=C(CC1=CCCCC1)N1CCC(C2CCN(Cc3cccnc3)CC2)C1` (stereo not given) was run?
The value was 1.01.

`COc1ccc(C(=O)NC2CC2)c(OC2CCN(Cc3ccc(F)c(F)c3)CC2)c1` was tested. Which “bacterial growth OD600” value (polymyxin B 0.75 µg/mL) did it give?
The value was 0.658.

With `CN(CC1CCCN(CCc2ccc(Cl)cc2)C1)C(=O)CC(F)(F)F` (stereo not given) as the compound, how does the “bacterial growth OD600” value (polymyxin B 1 µg/mL) read?
The value was 0.877.

How did the “bacterial growth OD600” value (polymyxin B 1 µg/mL) turn out when `O=C1N(CC2CCCCC2)CCCC1(O)CN1CCC(O)CC1` (stereo not given) was run?
Its value is 0.989.

With `Cc1nc2cc(OCc3cc(C(=O)N4C[C@@H](C)O[C@@H](C)C4)no3)ccc2s1` as the compound, how does the “bacterial growth OD600” value (polymyxin B 1 µg/mL) read?
Its value is 1.41.

Which “bacterial growth OD600” value (polymyxin B 0.75 µg/mL) does the source give for `CCC1C(=O)NCCN1c1ccc(-c2nc(Cc3ccccc3)no2)cn1` (stereo not given) here?
Its value is 0.66.

For `CC(C)Cc1cc(C(=O)N2CCC(C3(CCc4ccccc4)NC(=O)NC3=O)CC2)no1` (stereo not given), which “bacterial growth OD600” value (polymyxin B 0.75 µg/mL) is on record?
Its value is 0.761.

With `CC1CN(Cc2ccccc2O)Cc2cc(Cl)ccc2O1` (stereo not given) as the compound, how does the “bacterial growth OD600” value (polymyxin B 0.75 µg/mL) read?
Its value is 0.098.

For `COCCC(=O)N1CCC(C2CCN(c3ncccn3)CC2)C1` (stereo not given), which “bacterial growth OD600” value (polymyxin B 0.75 µg/mL) is on record?
The value was 0.774.

Which “bacterial growth OD600” value (polymyxin B 1 µg/mL) does the source give for `Cc1cc(C(=O)N2CCC3(CCCN(Cc4ccccc4F)C3=O)C2)n[nH]1` (stereo not given) here?
Its value is 0.875.
